Test results as given in the supplement of paper PMC8732350.
Counter-ions that a name gives are not always drawn. ± gives the standard deviation of the averaged measurements. The list shows a part of the results. Repeats in this data set agree poorly, so a single value says little.

tested on: A549; test: surface PD-L1 immunofluorescence intensity relative to IFN-gamma-only control (ratio); higher = more PD-L1 expression; conditions: 10 µM; exposure time 24 h; IFN-gamma 100 ng/mL

Row | Structure (SMILES) | surface PD-L1 immunofluorescence intensity
1 | CC(C)(C#N)c1cc(Cn2cncn2)cc(C(C)(C)C#N)c1 [Anastrozole] | 0.971
2 | CCc1cc(Nc2nccc(-c3c(-c4ccc(OC)c(C(=O)Nc5c(F)cccc5F)c4)nc4ccccn34)n2)c(OC)cc1N1CCC(N2CCN(S(C)(=O)=O)CC2)CC1 | 1.12
3 | CN(C(=O)C(Cl)Cl)c1ccc(OC(=O)c2ccco2)cc1 [Diloxanide furoate] | 0.989
4 | Nc1ccn([C@H]2CC[C@@H](CO)O2)c(=O)n1 [Zalcitabine] | 1.08
5 | CN1CCC(=C2c3ccccc3CCc3cccnc32)CC1 [Azatadine dimaleate] | 1.01
6 | Nc1nc2ccc(OC(F)(F)F)cc2s1 [Riluzole hydrochloride] | 0.9818 ± 0.0078
7 | Nc1nc2ccc(OC(F)(F)F)cc2s1 [Riluzole] | 1.07
8 | C(=C\c1ccccc1)/CN1CCN(C(c2ccccc2)c2ccccc2)CC1 [Cinnarizine] | 0.902
9 | C[C@]1(O)C[C@@H](c2nc(-c3ccc4ccc(-c5ccccc5)nc4c3)c3c(N)nccn32)C1 [OSI-906 (Linsitinib)] | 1.05
10 | C[C@@H]1CCO[C@H]2Cn3cc(C(=O)NCc4ccc(F)cc4F)c(=O)c(O)c3C(=O)N12 | 1
11 | O=C(C1CCCCC1)N1CC(=O)N2CCc3ccccc3C2C1 (stereo unspecified) [Praziquantel] | 0.774
12 | CC(=O)NCCCS(=O)(=O)O [Acamprosate calcium] | 1.07
13 | O=C(O)c1cc(/N=N/c2ccc(O)c(C(=O)O)c2)ccc1O [Olsalazine Sodium] | 1.06
14 | CCOC(=O)O[C@]1(C(=O)COC(=O)CC)CC[C@H]2[C@@H]3CCC4=CC(=O)C=C[C@]4(C)[C@H]3[C@@H](O)C[C@@]21C [Prednicarbate] | 0.857
15 | N#Cc1cc2c(OCC(O)CN3CCN(C(c4ccccc4)c4ccccc4)CC3)cccc2[nH]1 (stereo unspecified) | 0.956
16 | CC(C)(C)NCC(O)COc1cccc2c1CCC(=O)N2 (stereo unspecified) [Carteolol hydrochloride] | 0.928
17 | C=C1c2c(Cl)ccc(O)c2C(=O)C2=C(O)[C@]3(O)C(=O)C(C(N)=O)=C(O)[C@@H](N(C)C)[C@@H]3[C@@H](O)[C@H]12.O=C(O)c1cc(S(=O)(=O)O)ccc1O [Meclocycline sulfosalicylate] | 0.94
18 | C/C=C1\C(=O)C[C@H]2[C@@H]3CCC4=CC(=O)CC[C@]4(C)[C@H]3CC[C@]12C [Guggulsterone] | 0.974
19 | C/C=C1\C(=O)C[C@H]2[C@@H]3CCC4=CC(=O)CC[C@]4(C)[C@H]3CC[C@]12C [Z-Guggulsterone] | 1.05
20 | C[C@H](CCC(=O)O)[C@H]1CC[C@H]2[C@@H]3[C@H](O)C[C@@H]4C[C@H](O)CC[C@]4(C)[C@H]3CC[C@]12C [Chenodeoxycholic acid] | 0.985 ± 0.075
21 | C[C@H](CCC(=O)O)[C@H]1CC[C@H]2[C@@H]3[C@H](O)C[C@@H]4C[C@H](O)CC[C@]4(C)[C@H]3CC[C@]12C [Chenodiol] | 0.897

Single values from the results shown.
Under surface PD-L1 immunofluorescence intensity, Nc1nc2ccc(OC(F)(F)F)cc2s1 [Riluzole hydrochloride] is entered as 0.9818 ± 0.0078
Under surface PD-L1 immunofluorescence intensity, C[C@H](CCC(=O)O)[C@H]1CC[C@H]2[C@@H]3[C@H](O)C[C@@H]4C[C@H](O)CC[C@]4(C)[C@H]3CC[C@]12C [Chenodeoxycholic acid] is entered as 0.985 ± 0.075
